No constants are given. Whether binding was seen depends on the method and setting. Binding seen in cells or lysates may run through a third protein. These calls come from enrichment with a bait or labelling near it, and not all partners need be listed. For part of these data: A no says only that the protein was not detected with the bait. Values belong to the binder of their own block, whether it stands above or below them.
Experiments:
Assay in all cases: proximity labelling; TurboID fused to the C terminus of the bait in S. pombe cells; lysis in 8 M urea buffer; biotinylated proteins isolated on streptavidin resin and identified by mass spectrometry (MudPIT); one culture of each strain, done once
Its3–TurboID (S. pombe) = molecular target: T1, Its3–TurboID (S. pombe) (UniProt O13853)
T1 sequence: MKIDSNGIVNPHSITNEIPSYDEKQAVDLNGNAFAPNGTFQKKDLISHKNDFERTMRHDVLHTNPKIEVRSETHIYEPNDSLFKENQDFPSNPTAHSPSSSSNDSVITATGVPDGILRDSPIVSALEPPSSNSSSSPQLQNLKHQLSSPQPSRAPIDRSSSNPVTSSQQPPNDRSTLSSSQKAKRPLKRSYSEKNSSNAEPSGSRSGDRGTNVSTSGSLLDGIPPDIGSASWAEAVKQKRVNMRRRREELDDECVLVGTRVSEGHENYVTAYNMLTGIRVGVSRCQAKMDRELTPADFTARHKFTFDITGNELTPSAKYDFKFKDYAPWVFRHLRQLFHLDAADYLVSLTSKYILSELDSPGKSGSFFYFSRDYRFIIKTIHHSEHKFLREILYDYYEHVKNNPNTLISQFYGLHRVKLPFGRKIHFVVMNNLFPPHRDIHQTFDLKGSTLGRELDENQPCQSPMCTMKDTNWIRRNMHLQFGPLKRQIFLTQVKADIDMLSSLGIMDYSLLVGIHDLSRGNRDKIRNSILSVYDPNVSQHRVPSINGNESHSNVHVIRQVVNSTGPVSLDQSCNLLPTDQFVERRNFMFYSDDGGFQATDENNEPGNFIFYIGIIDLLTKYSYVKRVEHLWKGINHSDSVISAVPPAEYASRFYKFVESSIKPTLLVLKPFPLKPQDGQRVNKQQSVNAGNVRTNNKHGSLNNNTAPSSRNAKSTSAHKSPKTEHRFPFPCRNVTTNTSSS

Protein sequences, listed by entry. Tags and fused reporters are not part of them.
UniProt Q9USI6: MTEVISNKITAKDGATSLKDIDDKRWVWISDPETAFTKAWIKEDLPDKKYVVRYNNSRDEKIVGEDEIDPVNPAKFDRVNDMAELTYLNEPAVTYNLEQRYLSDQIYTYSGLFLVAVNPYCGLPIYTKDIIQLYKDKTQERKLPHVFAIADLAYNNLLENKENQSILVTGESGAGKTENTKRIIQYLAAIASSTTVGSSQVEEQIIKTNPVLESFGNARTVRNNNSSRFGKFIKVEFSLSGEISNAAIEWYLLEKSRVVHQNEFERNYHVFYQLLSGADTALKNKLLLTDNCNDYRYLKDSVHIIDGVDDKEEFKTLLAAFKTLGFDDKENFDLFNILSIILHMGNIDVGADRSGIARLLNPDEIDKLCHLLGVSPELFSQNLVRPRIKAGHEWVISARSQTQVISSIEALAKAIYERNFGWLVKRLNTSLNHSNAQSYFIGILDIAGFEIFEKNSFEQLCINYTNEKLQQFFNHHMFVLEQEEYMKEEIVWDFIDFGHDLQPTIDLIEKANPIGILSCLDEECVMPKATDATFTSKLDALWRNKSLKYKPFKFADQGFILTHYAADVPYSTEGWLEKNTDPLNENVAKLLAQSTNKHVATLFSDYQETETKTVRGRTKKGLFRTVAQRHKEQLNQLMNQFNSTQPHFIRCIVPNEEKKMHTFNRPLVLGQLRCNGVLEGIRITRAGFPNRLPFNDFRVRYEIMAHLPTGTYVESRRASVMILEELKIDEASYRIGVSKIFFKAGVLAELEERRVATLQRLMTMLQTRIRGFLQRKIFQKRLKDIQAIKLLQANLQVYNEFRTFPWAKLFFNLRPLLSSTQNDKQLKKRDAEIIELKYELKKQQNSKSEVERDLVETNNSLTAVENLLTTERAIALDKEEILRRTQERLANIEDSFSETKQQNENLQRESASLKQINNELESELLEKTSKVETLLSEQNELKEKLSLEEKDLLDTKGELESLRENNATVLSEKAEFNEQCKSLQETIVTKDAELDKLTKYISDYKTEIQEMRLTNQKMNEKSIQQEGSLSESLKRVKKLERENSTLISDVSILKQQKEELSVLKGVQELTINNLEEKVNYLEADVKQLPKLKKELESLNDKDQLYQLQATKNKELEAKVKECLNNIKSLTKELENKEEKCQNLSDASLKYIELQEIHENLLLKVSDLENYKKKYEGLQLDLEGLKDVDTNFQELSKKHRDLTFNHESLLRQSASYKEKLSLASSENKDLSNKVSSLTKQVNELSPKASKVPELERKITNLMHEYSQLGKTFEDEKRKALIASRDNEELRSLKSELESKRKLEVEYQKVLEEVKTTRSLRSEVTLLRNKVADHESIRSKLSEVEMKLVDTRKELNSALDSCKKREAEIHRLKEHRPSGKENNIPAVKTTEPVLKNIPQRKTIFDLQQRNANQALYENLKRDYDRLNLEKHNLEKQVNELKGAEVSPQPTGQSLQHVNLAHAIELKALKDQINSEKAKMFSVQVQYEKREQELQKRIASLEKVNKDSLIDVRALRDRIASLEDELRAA

Myo2–TurboID (S. pombe) = Myo2–TurboID (S. pombe) (UniProt Q9USI6)
Opy1–TurboID (S. pombe) = molecular target: T2, Opy1–TurboID (S. pombe) (UniProt Q96WV2)
T2 sequence: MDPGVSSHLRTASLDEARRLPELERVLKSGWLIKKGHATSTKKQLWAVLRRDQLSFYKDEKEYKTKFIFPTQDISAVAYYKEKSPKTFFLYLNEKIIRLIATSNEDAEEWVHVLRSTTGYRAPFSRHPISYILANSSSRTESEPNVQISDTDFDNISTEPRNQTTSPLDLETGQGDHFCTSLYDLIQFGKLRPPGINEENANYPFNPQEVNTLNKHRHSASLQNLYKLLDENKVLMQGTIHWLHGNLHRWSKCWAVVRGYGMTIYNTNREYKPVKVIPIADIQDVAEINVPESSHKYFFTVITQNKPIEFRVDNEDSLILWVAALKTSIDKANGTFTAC

- binding (Its3–TurboID (S. pombe)): binds
B1: Opy1 (protein, UniProt Q96WV2 1-339)
chain: T2 sequence

- binding (Myo2–TurboID (S. pombe)): no binding
B2: Duc1 (domain of unknown function at the cortex 1) (protein, UniProt O74504 1-791)
chain: MKLKVSIGCDAQHTQIAWVNYEGRPTEVDGPLWVGRILVRVRDFDGFTPDGSPPKRDSEYFRGRSRKFQIQAEGRFKKEYNGDQVIYGTQFDHMISTFPESAFRAGMRIAKYIDPAVYYDKYARSPYIMSPFVACVNTLSAWPAPSRLEDAVISLVEADSQESDTESLPEINDSSDVSLSDLPSTNVTPKKTTTQIDVQTNIVTPPITVTAVPDSPNPPAATPATVADNDDLSIVSSDSGNTTAPRKNRHRYWSFAGFSDSTRFSHLNVPAAIPDAPSVKTETSQNVSQLSVKSAATSLAPVEDDEDDELLLHRHITNKHKDFNLHVKQLGLLHKPSLDLEEGYIMDENYGKDVYKHGISNVPDDENEDDLQRYFTALEMQQDQKEQHKKSKNKDPFRKITHPSLHLGKFSTPKLIKRMSLRSKKSLRNDSKSDDVGNSTHRFSTASAASTSAVKTEKEKKMSAPRRSLDKLIRIGSLHRHHHHHHKTDLIESDSGIEASESNRRKSDIFSFSGRNSFSVSRPSSSHSTLSYANDSASSAVNVAGETGSLPPLREQTSITSGVPPSNRLKKHVSTPEKIVEERSIDEVSQSNTPSSKQLPQSVDGKTVTANANSTTVAKQPTSNVALTRPKPVRTATSQSKIPKPVKHIPSDSNNLDPQLGPWRFANPKVDPIEDNSFIFGEHKSVKERRKYFSSSKFCRENFFYDKDVVYCMSFFSPHMDFNTFNLNIGPIRLNVYKHLNSDGHQPIRYMMRETDDEDAVMFVVEFDLLEDDDETVLAEQAKERERRKQT

- binding (Opy1–TurboID (S. pombe)): binds
B3: Its3 (enzyme, UniProt O13853 1-742)
chain: T1 sequence
